No constants are given. Whether binding was seen depends on the method and setting. In cells and extracts the contact can be indirect. Some entries that bind do so weakly or less than the wild type.
B1: ring finger protein 8 (RNF8) (protein, UniProt O76064 1-485)
chain: MGEPGFFVTGDRAGGRSWCLRRVGMSAGWLLLEDGCEVTVGRGFGVTYQLVSKICPLMISRNHCVLKQNPEGQWTIMDNKSLNGVWLNRARLEPLRVYSIHQGDYIQLGVPLENKENAEYEYEVTEEDWETIYPCLSPKNDQMIEKNKELRTKRKFSLDELAGPGAEGPSNLKSKINKVSCESGQPVKSQGKGEVASTPSDNLDPKLTALEPSKTTGAPIYPGFPKVTEVHHEQKASNSSASQRSLQMFKVTMSRILRLKIQMQEKHEAVMNVKKQTQKGNSKKVVQMEQELQDLQSQLCAEQAQQQARVEQLEKTFQEEEQHLQGLEIAQGEKDLKQQLAQALQEHWALMEELNRSKKDFEAIIQAKNKELEQTKEEKEKMQAQKEEVLSHMNDVLENELQCIICSEYFIEAVTLNCAHSFCSYCINEWMKRKIECPICRKDIKSKTYSLVLDNCINKMVNNLSSEVKERRIVLIRERKAKRLF
B2: IKKβ (protein, UniProt O14920 1-756)
chain: MSWSPSLTTQTCGAWEMKERLGTGGFGNVIRWHNQETGEQIAIKQCRQELSPRNRERWCLEIQIMRRLTHPNVVAARDVPEGMQNLAPNDLPLLAMEYCQGGDLRKYLNQFENCCGLREGAILTLLSDIASALRYLHENRIIHRDLKPENIVLQQGEQRLIHKIIDLGYAKELDQGSLCTSFVGTLQYLAPELLEQQKYTVTVDYWSFGTLAFECITGFRPFLPNWQPVQWHSKVRQKSEVDIVVSEDLNGTVKFSSSLPYPNNLNSVLAERLEKWLQLMLMWHPRQRGTDPTYGPNGCFKALDDILNLKLVHILNMVTGTIHTYPVTEDESLQSLKARIQQDTGIPEEDQELLQEAGLALIPDKPATQCISDGKLNEGHTLDMDLVFLFDNSKITYETQISPRPQPESVSCILQEPKRNLAFFQLRKVWGQVWHSIQTLKEDCNRLQQGQRAAMMNLLRNNSCLSKMKNSMASMSQQLKAKLDFFKTSIQIDLEKYSEQTEFGITSDKLLLAWREMEQAVELCGRENEVKLLVERMMALQTDIVDLQRSPMGRKQGGTLDDLEEQARELYRRLREKPRDQRTEGDSQEMVRLLLQAIQSFEKKVRVIYTQLSKTVVCKQKALELLPKVEEVVSLMNEDEKTVVRLQEKRQKELWNLLKIACSKVRGPVSGSPDSMNASRLSQPGQLMSQPSTASNSLPEPAKKSEELVAEAHNLCTLLENAIQDTVREQDQSFTALDWSWLQTEEEEHSCLEQAS
B3: TGFβ-activated kinase 1 (TAK1) (protein, UniProt O43318 1-606)
chain: MSTASAASSSSSSSAGEMIEAPSQVLNFEEIDYKEIEVEEVVGRGAFGVVCKAKWRAKDVAIKQIESESERKAFIVELRQLSRVNHPNIVKLYGACLNPVCLVMEYAEGGSLYNVLHGAEPLPYYTAAHAMSWCLQCSQGVAYLHSMQPKALIHRDLKPPNLLLVAGGTVLKICDFGTACDIQTHMTNNKGSAAWMAPEVFEGSNYSEKCDVFSWGIILWEVITRRKPFDEIGGPAFRIMWAVHNGTRPPLIKNLPKPIESLMTRCWSKDPSQRPSMEEIVKIMTHLMRYFPGADEPLQYPCQYSDEGQSNSATSTGSFMDIASTNTSNKSDTNMEQVPATNDTIKRLESKLLKNQAKQQSESGRLSLGASRGSSVESLPPTSEGKRMSADMSEIEARIAATTAYSKPKRGHRKTASFGNILDVPEIVISGNGQPRRRSIQDLTVTGTEPGQVSSRSSSPSVRMITTSGPTSEKPTRSHPWTPDDSTDTNGSDNSIPMAYLTLDHQLQPLAPCPNSKESMAVFEQHCKMAQEYMKVQTEIALLLQRKQELVAELDQDEKDQQNTSRLVQEHKKLLDENKSLSTYYQQCKKQLEVIRSQQQKRQGTS

These binders were tested against S-peptide-tagged (S-tagged) HTLV-1 Tax (HTLV-1) (UniProt P03409) (assay: pull-down; S-tagged Tax captured from cleared lysate of transfected HEK293T cells on S-protein agarose beads, 4 °C overnight; lysis buffer with the deubiquitinase inhibitor PR619; beads washed three times; supernatant and pull-down fractions immunoblotted).

Row | Binder | binding
1 | B1 | binds
2 | B2 | binds
3 | B3 | binds

From publication PMC4540474
